These are yes or no findings as the source states them, for the method shown. Binding seen in cells or lysates may run through a third protein. These calls come from enrichment with a bait or labelling near it, and not all partners need be listed. Where a sequence is shown, tags or fusion partners need not be part of it.
Target: T1, Flag-KHSRP (pHAGE-KHSRP-FL, complete CDS of KHSRP) (UniProt Q92945)
T1 sequence: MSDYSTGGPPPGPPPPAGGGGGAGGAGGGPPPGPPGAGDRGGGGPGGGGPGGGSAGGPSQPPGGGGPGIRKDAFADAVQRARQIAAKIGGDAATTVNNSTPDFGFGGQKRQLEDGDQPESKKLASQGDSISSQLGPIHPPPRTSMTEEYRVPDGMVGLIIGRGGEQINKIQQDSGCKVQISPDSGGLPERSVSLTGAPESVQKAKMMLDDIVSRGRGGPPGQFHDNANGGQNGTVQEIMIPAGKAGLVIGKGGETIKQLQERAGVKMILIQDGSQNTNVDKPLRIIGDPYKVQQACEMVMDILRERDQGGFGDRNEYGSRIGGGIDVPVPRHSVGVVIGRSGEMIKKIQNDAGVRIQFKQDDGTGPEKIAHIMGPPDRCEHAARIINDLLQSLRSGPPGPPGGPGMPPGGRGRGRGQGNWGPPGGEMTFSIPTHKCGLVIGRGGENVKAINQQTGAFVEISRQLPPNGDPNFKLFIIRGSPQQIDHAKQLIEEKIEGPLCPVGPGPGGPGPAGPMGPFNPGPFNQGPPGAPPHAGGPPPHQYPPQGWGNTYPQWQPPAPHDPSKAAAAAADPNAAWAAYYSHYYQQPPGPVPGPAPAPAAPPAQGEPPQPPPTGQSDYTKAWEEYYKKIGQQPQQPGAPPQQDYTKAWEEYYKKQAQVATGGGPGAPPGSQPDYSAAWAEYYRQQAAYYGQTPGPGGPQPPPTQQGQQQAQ
Experiment: affinity purification with mass spectrometry; immunoprecipitation with anti-KHSRP (A302-021A, BETHYL) and A/G agarose beads from stable HL7702 cells expressing pHAGE-KHSRP-FL, overnight at 4 °C; candidates at least twofold enriched over IgG

Chains of the proteins cited; added tags and fusions are not shown.
UniProt Q15393: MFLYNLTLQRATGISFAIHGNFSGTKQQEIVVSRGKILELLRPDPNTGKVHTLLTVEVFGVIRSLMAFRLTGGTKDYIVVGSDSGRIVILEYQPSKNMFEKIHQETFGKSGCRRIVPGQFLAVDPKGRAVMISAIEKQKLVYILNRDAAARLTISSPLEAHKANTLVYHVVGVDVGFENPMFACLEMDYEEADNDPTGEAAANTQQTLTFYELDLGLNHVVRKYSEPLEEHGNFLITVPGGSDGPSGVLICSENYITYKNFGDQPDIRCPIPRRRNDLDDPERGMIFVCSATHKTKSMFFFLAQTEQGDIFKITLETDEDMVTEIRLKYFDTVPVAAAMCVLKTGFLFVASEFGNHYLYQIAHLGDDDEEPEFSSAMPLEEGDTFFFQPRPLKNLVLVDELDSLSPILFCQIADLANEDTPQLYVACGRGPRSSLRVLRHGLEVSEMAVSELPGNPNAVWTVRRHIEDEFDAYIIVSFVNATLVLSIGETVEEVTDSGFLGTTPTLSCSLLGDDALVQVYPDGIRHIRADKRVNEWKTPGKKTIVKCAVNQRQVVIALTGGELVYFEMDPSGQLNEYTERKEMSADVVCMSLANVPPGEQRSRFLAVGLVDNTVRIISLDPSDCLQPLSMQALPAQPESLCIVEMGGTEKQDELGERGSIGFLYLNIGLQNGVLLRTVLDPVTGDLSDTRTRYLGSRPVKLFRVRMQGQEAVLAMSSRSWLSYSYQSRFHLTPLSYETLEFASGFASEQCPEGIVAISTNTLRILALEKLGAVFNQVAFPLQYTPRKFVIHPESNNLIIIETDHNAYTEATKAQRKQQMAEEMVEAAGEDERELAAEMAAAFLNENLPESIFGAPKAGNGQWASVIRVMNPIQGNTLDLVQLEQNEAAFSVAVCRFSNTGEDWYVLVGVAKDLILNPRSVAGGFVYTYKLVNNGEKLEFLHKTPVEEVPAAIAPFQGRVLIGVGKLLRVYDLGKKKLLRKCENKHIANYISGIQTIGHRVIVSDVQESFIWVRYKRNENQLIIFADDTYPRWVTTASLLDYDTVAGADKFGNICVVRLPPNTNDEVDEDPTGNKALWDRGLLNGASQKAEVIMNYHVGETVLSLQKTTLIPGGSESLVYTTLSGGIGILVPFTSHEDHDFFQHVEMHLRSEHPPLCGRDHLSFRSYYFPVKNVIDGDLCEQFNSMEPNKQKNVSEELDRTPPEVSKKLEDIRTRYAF
UniProt O75533: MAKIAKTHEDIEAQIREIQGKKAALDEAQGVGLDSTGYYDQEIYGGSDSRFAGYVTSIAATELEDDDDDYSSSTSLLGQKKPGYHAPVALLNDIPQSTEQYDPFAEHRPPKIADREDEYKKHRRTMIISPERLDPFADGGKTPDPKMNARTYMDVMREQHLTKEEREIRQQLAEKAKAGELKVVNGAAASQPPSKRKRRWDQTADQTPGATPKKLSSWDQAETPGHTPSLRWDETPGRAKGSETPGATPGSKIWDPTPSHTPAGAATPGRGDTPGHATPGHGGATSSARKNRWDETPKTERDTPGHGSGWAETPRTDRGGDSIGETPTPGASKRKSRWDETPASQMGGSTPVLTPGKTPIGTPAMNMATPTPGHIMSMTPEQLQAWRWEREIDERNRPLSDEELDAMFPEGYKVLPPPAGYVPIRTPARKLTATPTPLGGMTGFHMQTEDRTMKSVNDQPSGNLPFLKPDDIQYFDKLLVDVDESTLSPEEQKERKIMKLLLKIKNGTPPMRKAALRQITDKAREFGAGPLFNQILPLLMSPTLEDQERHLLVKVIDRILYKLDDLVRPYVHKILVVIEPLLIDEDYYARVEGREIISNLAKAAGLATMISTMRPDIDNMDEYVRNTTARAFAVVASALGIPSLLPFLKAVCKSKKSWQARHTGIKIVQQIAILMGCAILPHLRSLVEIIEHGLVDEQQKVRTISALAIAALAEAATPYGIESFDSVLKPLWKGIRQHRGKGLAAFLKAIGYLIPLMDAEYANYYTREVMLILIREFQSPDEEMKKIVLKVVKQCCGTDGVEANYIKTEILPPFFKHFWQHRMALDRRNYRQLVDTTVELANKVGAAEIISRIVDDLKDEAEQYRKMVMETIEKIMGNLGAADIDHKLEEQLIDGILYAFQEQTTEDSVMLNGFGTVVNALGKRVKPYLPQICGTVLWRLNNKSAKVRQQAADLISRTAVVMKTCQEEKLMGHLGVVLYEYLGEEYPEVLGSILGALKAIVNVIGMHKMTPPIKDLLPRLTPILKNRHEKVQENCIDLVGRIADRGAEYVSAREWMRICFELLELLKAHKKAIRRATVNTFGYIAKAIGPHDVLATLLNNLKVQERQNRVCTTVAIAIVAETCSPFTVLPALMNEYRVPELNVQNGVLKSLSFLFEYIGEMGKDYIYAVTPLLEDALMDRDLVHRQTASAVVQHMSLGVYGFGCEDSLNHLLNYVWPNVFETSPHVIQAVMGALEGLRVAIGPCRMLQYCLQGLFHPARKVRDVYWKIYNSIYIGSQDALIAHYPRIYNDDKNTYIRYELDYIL

Row | Substance | binding
1 | SF3B3 (from UniProt Q15393 1-1217) | binds
2 | splicing factor 3b subunit 1 (from UniProt O75533 1-1304) | binds
